Laboratory results taken from PubChem BioAssay AID1671190 (National Center for Advancing Translational Sciences (NCATS), 2021).
Several values for one entry are separate records, joined by “and”; a condition that tells them apart may be missing. Identical values can stand only once. Out of some 580,000 compounds screened, about 6,100 (1.1%) were called active. This list was built around the results that the source calls inconclusive (neither active nor inactive); the mix of calls is not that of the screen. Calls follow the shape of the dose curve; as a rule, active = well fitted inhibition curve with a large enough effect; inconclusive = small, poorly fitted or top-dose-only effect, or another doubt; inactive = no such curve, though single readings can be large or run the other way. Potencies of inconclusive entries are doubtful fits and often do not repeat.

The chains behind the UniProt entries cited, without tags or fusion partners. Where a name states a change or a piece, a line headed by the entry shows the natural chain unless it says otherwise.
UniProt P18054: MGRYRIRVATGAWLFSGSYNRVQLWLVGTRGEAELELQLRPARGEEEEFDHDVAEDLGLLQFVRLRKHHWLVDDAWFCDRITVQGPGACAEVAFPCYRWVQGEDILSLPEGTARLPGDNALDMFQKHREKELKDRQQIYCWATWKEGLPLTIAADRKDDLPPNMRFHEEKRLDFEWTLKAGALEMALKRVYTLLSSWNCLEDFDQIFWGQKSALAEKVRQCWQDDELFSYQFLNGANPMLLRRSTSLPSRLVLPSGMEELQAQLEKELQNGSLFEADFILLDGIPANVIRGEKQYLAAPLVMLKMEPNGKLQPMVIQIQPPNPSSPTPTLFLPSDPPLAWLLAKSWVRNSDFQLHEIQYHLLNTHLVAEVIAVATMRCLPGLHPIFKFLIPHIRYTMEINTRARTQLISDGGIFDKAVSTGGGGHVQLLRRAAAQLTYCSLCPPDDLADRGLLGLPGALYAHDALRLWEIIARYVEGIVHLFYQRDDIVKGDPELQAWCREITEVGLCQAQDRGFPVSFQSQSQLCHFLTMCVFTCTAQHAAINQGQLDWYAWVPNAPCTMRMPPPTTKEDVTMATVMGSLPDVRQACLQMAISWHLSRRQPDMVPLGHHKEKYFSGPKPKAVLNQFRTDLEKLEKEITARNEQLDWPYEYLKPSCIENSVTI

Each compound was assayed against Polyunsaturated fatty acid lipoxygenase ALOX12 (Homo sapiens) (UniProt P18054) (assay: Primary qHTS assay for inhibitors of human arachidonate 12S-lipoxygenase (ALOX12): Round 2). Conditions: purified 12hLO, xylenol orange hydroperoxide absorbance; activity change, negative = inhibition: at 108 µM (top of the series) unless noted.
How it was run: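 Purified human 12hLO (150 nM final) in 25 mM Hepes, 0.01% Triton X-100, pH 7.0 was preincubated 15 min at room temperature with compound. Then 40 uM arachidonic acid was added, 30 min. Hydroperoxide was read by Fe-XO absorbance ratio 573/405 nm.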
% is scaled to controls: 0 for no effect and ±100 for the full control effect; potency is read from the fitted curve at half-maximal effect.

Row | SMILES | Potency | activity change, negative = inhibition
1 | COc1ccc(-c2nc3c(C)cc(Br)cn3c2Cc2ccccc2C(F)(F)F)cc1OC | inconclusive: 39.8 µM [inhibitor, single point] | –
2 | CCC(=O)Nc1c2c(nn1-c1cccc(Cl)c1)CSC2 | inconclusive: 89.1 µM [inhibitor, single point] | –
3 | COc1ccccc1N1CCN(CCC(=O)Nc2ccc3c(c2)OCO3)CC1 | – | inactive: 0%
4 | COC(=O)C1C(=O)C(C(=O)/C=C/c2ccco2)C(=O)CC1(C)C (stereo not drawn) | inconclusive: 25.1 µM [inhibitor, partial curve, poor fit] | –
5 | CC1CCCN(CC(O)COc2ccc(Cl)cc2)C1 (stereo not drawn) | inconclusive: 112 µM [inhibitor, partial curve, poor fit] | –
6 | Cc1ccc(/C=C/C(=O)N2CCN(S(=O)(=O)c3ccc(C)c(C)c3)CC2)o1 | active: 17.8 µM | –
7 | Cn1ncc([N+](=O)[O-])c1C(=O)Nc1cccc(Cl)c1 | inconclusive: 112 µM [inhibitor, single point] | –
8 | CCOC(=O)Cc1csc(NC(=O)Cc2ccc(Cl)cc2)n1 | inconclusive: 25.1 µM [inhibitor, full curve, poor fit] | –
9 | CSc1nc2c(c(=O)[nH]c(=O)n2C)n1Cc1ccc(Cl)cc1 | inconclusive: 35.5 µM [inhibitor, partial curve] | –
10 | O=C(c1cc(CN2CCOCC2)on1)N1CCc2c(nc3cc(-c4ccccc4)[nH]n3c2=O)C1 | inconclusive: 28.2 µM [inhibitor, single point] | –
11 | Cc1ccc2c(CN3CCCCC3)cc(=O)oc2c1C | inconclusive: 44.7 µM [inhibitor, partial curve, poor fit] and inconclusive: 25.1 µM [inhibitor, partial curve, poor fit] | –
12 | Cc1ccccc1C(=O)/C=C/c1cc2ccccc2nc1N1CCOCC1 | – | inactive: 7.43%
13 | CCOc1ccc(CCNC(=O)CCc2c(C)nc3cc(-c4ccccc4OC)nn3c2C)cc1 | inconclusive: 50.1 µM [inhibitor, partial curve, poor fit] | –
14 | Cn1c2ccccc2c2nnc(SCC(=O)Nc3cccc(O)c3)nc21 | inconclusive: 63.1 µM [inhibitor, partial curve, poor fit] | –
15 | N#Cc1cccc(NC(=O)c2ccc3c(c2)NC(=O)CS3)c1 | inconclusive: 112 µM [inhibitor, partial curve, poor fit] | –
16 | CNC(=O)CCn1ncc2cc(OCc3ccccc3-c3ccccc3F)ccc21 | inconclusive: 126 µM [inhibitor, single point] | –
17 | Cc1cc(C(=O)N2CCC3(CCCN(C(C)C)C3=O)C2)c(-c2ccccc2)o1 (stereo not drawn) | inconclusive: 79.4 µM [inhibitor, single point] | –
18 | O=C1Cc2cccc(=O)c(O)c2C(=O)O1 | inconclusive: 44.7 µM [inhibitor, partial curve, poor fit] | –
19 | N#Cc1c(N)n(Cc2ccccc2)c(=O)c2cc([N+](=O)[O-])ccc12 | inconclusive: 2.82 µM [inhibitor, full curve, poor fit] | –

Row | SMILES | Potency | activity change, negative = inhibition
20 | CCOC1=C2CN(S(=O)(=O)c3ccc(Cl)cc3)[C@H](c3ccccc3)C[C@@H]2N(S(=O)(=O)c2ccc(C)cc2)[C@H](c2ccccc2)C1 | inconclusive: 70.8 µM [inhibitor, single point] | –
21 | O=C(c1cccc(F)c1)N1CCC[C@@]2(CCN(c3ccncc3)C2)C1 | inconclusive: 31.6 µM [inhibitor, single point] | –
22 | O=C(NCc1ccccc1F)c1ccc2c(c1)CN(CC1=Cc3ccccc3OC1)CCO2 | – | inactive: -15.1%
23 | Cc1ccc(C(=O)N[C@@H]2CN(Cc3ccncc3)C[C@H]2CN(C)C)cc1C | – | inactive: 78.1%
24 | CCOC(=O)N/N=C\c1ccc([N+](=O)[O-])s1 | inconclusive: 112 µM [inhibitor, single point] | –
25 | CC(=O)c1c(C)[nH]c(C(=O)OCC(=O)Nc2sc3c(c2C#N)CCCC3)c1C | inconclusive: 56.2 µM [inhibitor, partial curve, poor fit] | –
26 | Cc1ccc(-c2nc3ccccc3s2)cc1S(=O)(=O)N1CCCCC1 | inconclusive: 44.7 µM [inhibitor, partial curve, poor fit] | –
27 | O=C1COc2ccc(OCc3cncs3)nc2CN1CCOc1ccccc1 | – | inactive: 7.82% [at 176 µM]
28 | CN(C)CCOCC1(C)COc2ccc(C(=O)Nc3ccc4[nH]ccc4c3)cc2N1 (stereo not drawn) | inconclusive: 44.7 µM [inhibitor, full curve] | –
29 | CCn1ncc(N2CCCC(CC(=O)NCCc3ccccc3)C2)cc1=O (stereo not drawn) | – | inactive: -3.47%
30 | CC1CCC(C(C)C)C(OC(=O)C[n+]2cccc(C(N)=O)c2)C1 (stereo not drawn) | inconclusive: 8.91 µM [inhibitor, partial curve, poor fit] | –
31 | O=C(O)CC/C(=C\c1ccc(N2CCCC2)c([N+](=O)[O-])c1)c1nc2ccccc2s1 | inconclusive: 100 µM [inhibitor, partial curve, poor fit] | –
32 | COc1ccc(CNCCC(c2ccccc2)c2ccc3c(c2)OCO3)cc1 (stereo not drawn) | inconclusive: 44.7 µM [inhibitor, partial curve] and inconclusive: 44.7 µM [inhibitor, partial curve, poor fit] | –
33 | COC[C@H]1C[C@@H](NC(=O)c2cccnc2)[C@H](O)[C@@H]1O | inconclusive: 15.8 µM [inhibitor, full curve] | –
34 | COc1ccccc1CN1Cc2cc(NC(=O)c3ccc(Cl)cc3)ccc2OC(C)C1=O (stereo not drawn) | inconclusive: 22.4 µM [inhibitor, full curve] | –
35 | COc1ccc(S(=O)(=O)N2CC(=O)Nc3ccccc32)cc1 | inconclusive: 79.4 µM [inhibitor, single point] | –
36 | Cc1ccc(S(=O)(=O)N2C[C@H]3[C@H]4C(=O)N(c5ccccc5)C(=O)[C@H]4C[C@H](OC(=O)NC4CC4)[C@@]3(O)C2)cc1 | inconclusive: 112 µM [inhibitor, single point] | –
37 | Cc1ncccc1C(=O)N1CC(Oc2ccccc2-c2nc(-c3ccccc3)no2)C1 | – | inactive: -13.6%
38 | COC(=O)c1c(C)[nH]c(C(=O)C(C)OC(=O)c2cccc(Cl)c2Cl)c1C (stereo not drawn) | inconclusive: 0.794 µM [inhibitor, full curve, poor fit] | –
